# Laboratory results reported in publication PMC10556033.
# Sequences of proteins named here, by UniProt entry; tags and fusion partners are left off.
# UniProt O60573: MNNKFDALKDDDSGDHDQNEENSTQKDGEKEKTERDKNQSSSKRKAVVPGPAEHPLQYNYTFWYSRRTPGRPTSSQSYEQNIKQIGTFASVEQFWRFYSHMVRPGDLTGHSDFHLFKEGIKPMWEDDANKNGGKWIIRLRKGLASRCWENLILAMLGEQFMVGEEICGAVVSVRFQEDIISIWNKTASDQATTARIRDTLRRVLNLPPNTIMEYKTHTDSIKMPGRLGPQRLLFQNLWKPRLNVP
# Numbering of substitutions follows the chain as printed. These are yes or no findings as the source states them, for the method shown. In cells and extracts the contact can be indirect. Some results given as binding are weak or reduced against the parent protein; the word gives no strength. Tags and fused reporters may be left off the sequences shown.
# T1: His-tagged mesoderm-specific transcript (MEST), from MEST cDNA plasmid (UniProt Q5EB52)
# T1 sequence (chain, N-glycan with LeY and α1,3-fucosylation at Asn163): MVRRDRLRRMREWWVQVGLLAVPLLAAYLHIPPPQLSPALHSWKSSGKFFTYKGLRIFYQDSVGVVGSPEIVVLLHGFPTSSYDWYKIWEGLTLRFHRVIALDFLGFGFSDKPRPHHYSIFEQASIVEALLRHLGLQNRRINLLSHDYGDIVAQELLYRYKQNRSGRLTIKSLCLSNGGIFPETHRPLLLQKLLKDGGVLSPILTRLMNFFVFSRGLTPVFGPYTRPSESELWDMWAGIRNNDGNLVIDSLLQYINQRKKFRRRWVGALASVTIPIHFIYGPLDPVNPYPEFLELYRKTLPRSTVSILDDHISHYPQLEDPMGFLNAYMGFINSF
# T2: His-tagged MEST N163Q mutant (UniProt Q5EB52)
# T2 sequence: T1 sequence (chain, N-glycan with LeY and α1,3-fucosylation at Asn163) with N163Q
# B1: eIF4E-Transporter (4E-T) (protein, UniProt Q9NRA8 1-985)
# chain: MDRRSMGETESGDAFLDLKKPPASKCPHRYTKEELLDIKELPHSKQRPSCLSEKYDSDGVWDPEKWHASLYPASGRSSPVESLKKELDTDRPSLVRRIVDPRERVKEDDLDVVLSPQRRSFGGGCHVTAAVSSRRSGSPLEKDSDGLRLLGGRRIGSGRIISARTFEKDHRLSDKDLRDLRDRDRERDFKDKRFRREFGDSKRVFGERRRNDSYTEEEPEWFSAGPTSQSETIELTGFDDKILEEDHKGRKRTRRRTASVKEGIVECNGGVAEEDEVEVILAQEPAADQEVPRDAVLPEQSPGDFDFNEFFNLDKVPCLASMIEDVLGEGSVSASRFSRWFSNPSRSGSRSSSLGSTPHEELERLAGLEQAILSPGQNSGNYFAPIPLEDHAENKVDILEMLQKAKVDLKPLLSSLSANKEKLKESSHSGVVLSVEEVEAGLKGLKVDQQVKNSTPFMAEHLEETLSAVTNNRQLKKDGDMTAFNKLVSTMKASGTLPSQPKVSRNLESHLMSPAEIPGQPVPKNILQELLGQPVQRPASSNLLSGLMGSLEPTTSLLGQRAPSPPLSQVFQTRAASADYLRPRIPSPIGFTPGPQQLLGDPFQGMRKPMSPITAQMSQLELQQAALEGLALPHDLAVQAANFYQPGFGKPQVDRTRDGFRNRQQRVTKSPAPVHRGNSSSPAPAASITSMLSPSFTPTSVIRKMYESKEKSKEEPASGKAALGDSKEDTQKASEENLLSSSSVPSADRDSSPTTNSKLSALQRSSCSTPLSQANRYTKEQDYRPKATGRKTPTLASPVPTTPFLRPVHQVPLVPHVPMVRPAHQLHPGLVQRMLAQGVHPQHLPSLLQTGVLPPGMDLSHLQGISGPILGQPFYPLPAASHPLLNPRPGTPLHLAMVQQQLQRSVLHPPGSGSHAAAVSVQTTPQNVPSRSGLPHMHSQLEHRPSQRSSSPVGLAKWFGSDVLQQPLPSMPAKVISVDELEYRQ
# B2: Grb10-interacting GYF protein 2 (GIGYF2) (protein, UniProt Q6Y7W6 1-1299)
# chain: MAAETQTLNFGPEWLRALSSGGSITSPPLSPALPKYKLADYRYGREEMLALFLKDNKIPSDLLDKEFLPILQEEPLPPLALVPFTEEEQRNFSMSVNSAAVLRLTGRGGGGTVVGAPRGRSSSRGRGRGRGECGFYQRSFDEVEGVFGRGGGREMHRSQSWEERGDRRFEKPGRKDVGRPNFEEGGPTSVGRKHEFIRSESENWRIFREEQNGEDEDGGWRLAGSRRDGERWRPHSPDGPRSAGWREHMERRRRFEFDFRDRDDERGYRRVRSGSGSIDDDRDSLPEWCLEDAEEEMGTFDSSGAFLSLKKVQKEPIPEEQEMDFRPVDEGEECSDSEGSHNEEAKEPDKTNKKEGEKTDRVGVEASEETPQTSSSSARPGTPSDHQSQEASQFERKDEPKTEQTEKAEEETRMENSLPAKVPSRGDEMVADVQQPLSQIPSDTASPLLILPPPVPNPSPTLRPVETPVVGAPGMGSVSTEPDDEEGLKHLEQQAEKMVAYLQDSALDDERLASKLQEHRAKGVSIPLMHEAMQKWYYKDPQGEIQGPFNNQEMAEWFQAGYFTMSLLVKRACDESFQPLGDIMKMWGRVPFSPGPAPPPHMGELDQERLTRQQELTALYQMQHLQYQQFLIQQQYAQVLAQQQKAALSSQQQQQLALLLQQFQTLKMRISDQNIIPSVTRSVSVPDTGSIWELQPTASQPTVWEGGSVWDLPLDTTTPGPALEQLQQLEKAKAAKLEQERREAEMRAKREEEERKRQEELRRQQEEILRRQQEEERKRREEEELARRKQEEALRRQREQEIALRRQREEEERQQQEEALRRLEERRREEEERRKQEELLRKQEEEAAKWAREEEEAQRRLEENRLRMEEEAARLRHEEEERKRKELEVQRQKELMRQRQQQQEALRRLQQQQQQQQLAQMKLPSSSTWGQQSNTTACQSQATLSLAEIQKLEEERERQLREEQRRQQRELMKALQQQQQQQQQKLSGWGNVSKPSGTTKSLLEIQQEEARQMQKQQQQQQQHQQPNRARNNTHSNLHTSIGNSVWGSINTGPPNQWASDLVSSIWSNADTKNSNMGFWDDAVKEVGPRNSTNKNKNNASLSKSVGVSNRQNKKVEEEEKLLKLFQGVNKAQDGFTQWCEQMLHALNTANNLDVPTFVSFLKEVESPYEVHDYIRAYLGDTSEAKEFAKQFLERRAKQKANQQRQQQQLPQQQQQQPPQQPPQQPQQQDSVWGMNHSTLHSVFQTNQSNNQQSNFEAVQSGKKKKKQKMVRADPSLLGFSVNASSERLNMGEIETLDDY
# B3: His-tagged mesoderm-specific transcript (MEST), from MEST cDNA plasmid (protein, UniProt Q5EB52 1-335)
# chain: T1 sequence (chain, N-glycan with LeY and α1,3-fucosylation at Asn163)
# modifications: N-glycan with LeY and α1,3-fucosylation at Asn163
# Tests used:
# [1] = biological target: T1, His-tagged mesoderm-specific transcript (MEST), from MEST cDNA plasmid; experiment: co-IP; lysate of HTR-8/SVneo cells transfected with His-tagged MEST cDNA or His-tagged MEST N163Q; precipitated with anti-His antibody, blotted with anti-eIF4E2
# [2] = biological target: T2, His-tagged MEST N163Q mutant; experiment: as above
# [3] = biological target: eukaryotic initiation factor eIF4E2 (human (endogenous in HTR-8/SVneo)) (UniProt O60573); experiment: co-IP; eIF4E2 co-IP from HTR-8/SVneo cells transfected with MEST cDNA or MEST mut (Fig. 5f), or with FUT4 cDNA, FUT4 siRNA or scramble (Fig. 5g); immunoblotting for MEST, 4E-T and GIGYF2
Molecule,binding [1],binding [2],binding [3]
eukaryotic initiation factor eIF4E2 (from UniProt O60573 1-245),binds,binds,
B1,,,binds
B2,,,binds
B3,,,binds
